Measured values reported in doi:10.1101/2020.01.16.909523 (bioRxiv, 2020).
Results are given in words; binding and its absence hold for the method and conditions named. Binding seen in cells or lysates may run through a third protein. Some entries that bind do so weakly or less than the wild type.

Molecular target: PPE4mt (N-terminal PPE domain) (Mycobacterium tuberculosis) (UniProt P9WI43)
Test: pull-down

EspG3mt (from UniProt P9WJC7 1-295)
binding: binds
